Laboratory results taken from article PMC5342444.

The chains behind the UniProt entries cited, without tags or fusion partners. Residues count along the entry.
UniProt P38646, residues 47-679: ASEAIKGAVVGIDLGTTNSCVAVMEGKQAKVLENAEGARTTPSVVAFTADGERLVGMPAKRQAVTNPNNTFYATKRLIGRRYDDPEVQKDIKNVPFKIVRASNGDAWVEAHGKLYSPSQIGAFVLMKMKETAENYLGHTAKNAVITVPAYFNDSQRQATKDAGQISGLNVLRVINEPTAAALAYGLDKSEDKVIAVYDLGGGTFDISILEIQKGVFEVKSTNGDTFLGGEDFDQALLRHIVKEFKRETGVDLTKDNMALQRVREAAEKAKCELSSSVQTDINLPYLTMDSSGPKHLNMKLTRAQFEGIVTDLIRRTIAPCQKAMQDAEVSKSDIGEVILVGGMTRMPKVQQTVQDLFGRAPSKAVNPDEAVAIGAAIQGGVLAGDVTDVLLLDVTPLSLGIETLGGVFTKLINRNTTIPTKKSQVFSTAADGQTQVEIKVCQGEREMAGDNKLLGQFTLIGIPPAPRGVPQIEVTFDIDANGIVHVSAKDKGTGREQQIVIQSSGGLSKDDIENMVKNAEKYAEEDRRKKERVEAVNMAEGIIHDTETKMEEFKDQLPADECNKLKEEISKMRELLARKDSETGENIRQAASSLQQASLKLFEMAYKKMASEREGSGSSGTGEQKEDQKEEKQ
UniProt P11142: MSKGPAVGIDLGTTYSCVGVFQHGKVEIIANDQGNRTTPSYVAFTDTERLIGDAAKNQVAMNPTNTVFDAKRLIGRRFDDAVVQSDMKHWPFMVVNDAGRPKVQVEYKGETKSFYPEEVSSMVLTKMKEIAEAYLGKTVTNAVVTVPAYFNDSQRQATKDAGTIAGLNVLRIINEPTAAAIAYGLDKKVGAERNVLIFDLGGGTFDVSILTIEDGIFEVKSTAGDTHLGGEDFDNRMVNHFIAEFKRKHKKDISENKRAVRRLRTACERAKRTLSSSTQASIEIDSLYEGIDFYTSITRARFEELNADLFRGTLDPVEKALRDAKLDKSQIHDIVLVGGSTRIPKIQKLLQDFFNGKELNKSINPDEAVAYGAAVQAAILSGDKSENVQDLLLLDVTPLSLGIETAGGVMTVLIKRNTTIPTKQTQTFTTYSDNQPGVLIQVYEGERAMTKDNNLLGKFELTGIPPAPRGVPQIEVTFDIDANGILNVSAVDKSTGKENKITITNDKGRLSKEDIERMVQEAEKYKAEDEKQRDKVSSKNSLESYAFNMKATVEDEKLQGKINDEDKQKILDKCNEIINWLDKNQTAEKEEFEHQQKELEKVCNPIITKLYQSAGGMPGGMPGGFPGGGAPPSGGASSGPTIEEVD

Target: T1, CD24 overexpressed from the pcDNA4-CD24-myc plasmid in HT29 cells (human) (UniProt P25063)
T1 sequence: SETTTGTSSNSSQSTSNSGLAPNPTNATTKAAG
Assay: affinity purification with mass spectrometry; lysates of HT29 cells transfected with pcDNA4 or pcDNA4-CD24-myc, immunoprecipitated; 12.5% SDS-PAGE, bands of interest excised, LC-MS/MS, MALDI-TOF/TOF; human MSDB databank

For Grp75 (from UniProt P38646 47-679), the binding was “binds”.
Hspa8/Hsc71 (from UniProt P11142 1-646) was tested, and the binding was “binds”.

These are yes or no findings as the source states them, for the method shown. In cells and extracts the contact can be indirect. These calls come from enrichment with a bait or labelling near it, and not all partners need be listed. Sequences can lack the tags named with a protein.
